From patent US8722690B2, “Mesoionic pesticides” (E I du Pont de Nemours and Company, priority 2009, dated 2014)
Where two headings read alike, the source gives them in different places. Some entries share one result that the patent states for a list of compounds. For at least one compound, name, drawing or mass did not settle the structure.

How the values were obtained:
Assay type in all cases: in vivo
[1] = system: diamondback moth (Plutella xylostella); test: Test A: control of diamondback moth on radish plant, foliar spray; conditions: 6 days, very good to excellent levels of control efficacy
[2] = system: potato leafhopper (Empoasca fabae); conditions: 6 days, Soleil bean plant, very good to excellent levels of control efficacy
[3] = system: fall armyworm (Spodoptera frugiperda); test: Test B: control of fall armyworm on maize plant, foliar spray; conditions: very good to excellent levels of control efficacy

| SMILES | control efficacy: feeding damage (40% or less feeding damage and/or 100% mortality) ([1]; sprayed at 10 ppm) | control efficacy: feeding damage (40% or less feeding damage and/or 100% mortality) ([1]; sprayed at 50 ppm) | control efficacy: mortality ([2]; sprayed at 50 ppm) | control efficacy: feeding damage (40% or less feeding damage and/or 100% mortality) ([3]; sprayed at 10 ppm) | control efficacy: feeding damage (40% or less feeding damage and/or 100% mortality) ([3]; sprayed at 50 ppm) | control efficacy: mortality ([2]; sprayed at 10 ppm) |
| --- | --- | --- | --- | --- | --- | --- |
| Cc1cccn2c(=O)c(-c3ccnc(Br)c3)c([O-])[n+](Cc3cnc(Cl)s3)c12 [Compound 261] | ≤ 40% | ≤ 40% | ≥ 80% | ≤ 40% | ≤ 40% |  |
| Cc1cccn2c(=O)c(-c3cc(Cl)cc(-c4ccc(Cl)cc4Cl)c3)c([O-])[n+](Cc3cnc(Cl)s3)c12 [Compound 262] | ≤ 40% | ≤ 40% | ≥ 80% | ≤ 40% | ≤ 40% | ≥ 80% |
| Cc1cc(Cl)ccc1-c1cc(-c2c([O-])[n+](Cc3cnc(Cl)s3)c3c(C)cccn3c2=O)cc(C(F)(F)F)c1 [Compound 276] | ≤ 40% | ≤ 40% | ≥ 80% | ≤ 40% | ≤ 40% |  |
| Cc1cccn2c(=O)c(-c3cccc(-c4cc(Cl)cc(C(F)(F)F)c4)c3)c([O-])[n+](Cc3cnc(Cl)s3)c12 [Compound 277] | ≤ 40% | ≤ 40% | ≥ 80% | ≤ 40% | ≤ 40% | ≥ 80% |
| Cc1ccc(-c2c([O-])[n+](Cc3cnc(Cl)s3)c3c(C)cccn3c2=O)cc1-c1ccc(C(F)(F)F)cc1Cl [Compound 278] | ≤ 40% | ≤ 40% | ≥ 80% | ≤ 40% | ≤ 40% |  |
| Cc1cccn2c(=O)c(-c3cc(Cl)nc(Cl)c3)c([O-])[n+](Cc3cnc(Cl)s3)c12 [Compound 288] | ≤ 40% | ≤ 40% | ≥ 80% | ≤ 40% | ≤ 40% |  |
| Cc1cccn2c(=O)c(-c3ccc(F)c(-c4ccc(Cl)cc4Cl)c3)c([O-])[n+](Cc3cnc(Cl)s3)c12 [Compound 291] | ≤ 40% | ≤ 40% | ≥ 80% | ≤ 40% | ≤ 40% | ≥ 80% |
| Cc1cccn2c(=O)c(CC(C)C)c([O-])[n+](Cc3cnc(Cl)s3)c12 [Compound 292] | ≤ 40% | ≤ 40% | ≥ 80% |  | ≤ 40% |  |
| CCCc1c([O-])[n+](Cc2cnc(Cl)s2)c2c(C)cccn2c1=O [Compound 294] | ≤ 40% | ≤ 40% | ≥ 80% |  | ≤ 40% |  |
| Cc1cccn2c(=O)c(-c3cc(Br)cc(C#N)c3)c([O-])[n+](Cc3cnc(Cl)s3)c12 [Compound 296] | ≤ 40% | ≤ 40% | ≥ 80% | ≤ 40% | ≤ 40% |  |
| Cc1cccn2c(=O)c(-c3cc(-c4ccc(C(F)(F)F)nc4)ccc3F)c([O-])[n+](Cc3cnc(Cl)s3)c12 [Compound 299] | ≤ 40% | ≤ 40% | ≥ 80% | ≤ 40% | ≤ 40% | ≥ 80% |
| Cc1cccn2c(=O)c(-c3cc(-c4ccc(C(F)(F)F)cc4)ccc3Cl)c([O-])[n+](Cc3cnc(Cl)s3)c12 [Compound 301] | ≤ 40% | ≤ 40% | ≥ 80% | ≤ 40% | ≤ 40% |  |
| Cc1cc(C#N)cc(-c2c([O-])[n+](Cc3cnc(Cl)s3)c3c(C)cccn3c2=O)c1 [Compound 304] | ≤ 40% | ≤ 40% | ≥ 80% |  | ≤ 40% |  |
| Cc1cccn2c(=O)c(-c3ccc(Cl)c(-c4ccc(C(F)(F)F)cc4)c3)c([O-])[n+](Cc3cnc(Cl)s3)c12 [Compound 305] | ≤ 40% | ≤ 40% | ≥ 80% | ≤ 40% | ≤ 40% |  |
| Cc1cccn2c(=O)c(-c3ccc(Cl)c(-c4ccc(C(F)(F)F)nc4)c3)c([O-])[n+](Cc3cnc(Cl)s3)c12 [Compound 306] | ≤ 40% | ≤ 40% | ≥ 80% |  | ≤ 40% |  |
| Cc1cccn2c(=O)c(-c3cc(Cl)cc(-c4ccc(Cl)nc4Cl)c3)c([O-])[n+](Cc3cnc(Cl)s3)c12 [Compound 308] | ≤ 40% | ≤ 40% | ≥ 80% | ≤ 40% | ≤ 40% |  |
| Cc1cccn2c(=O)c(-c3cccc4ccccc34)c([O-])[n+](Cc3cnc(Cl)s3)c12 [Compound 309] | ≤ 40% | ≤ 40% | ≥ 80% | ≤ 40% | ≤ 40% | ≥ 80% |
| Cc1cccn2c(=O)c(-c3ccccc3I)c([O-])[n+](Cc3cnc(Cl)s3)c12 [Compound 310] | ≤ 40% | ≤ 40% | ≥ 80% |  | ≤ 40% | ≥ 80% |
| Cc1cccn2c(=O)c(-c3cccc(C#N)c3)c([O-])[n+](Cc3cnc(Cl)s3)c12 [Compound 311] | ≤ 40% | ≤ 40% | ≥ 80% |  | ≤ 40% |  |
| Cc1ccc(-c2ccc(C(F)(F)F)nc2)cc1-c1c([O-])[n+](Cc2cnc(Cl)s2)c2c(C)cccn2c1=O [Compound 318] | ≤ 40% | ≤ 40% | ≥ 80% |  | ≤ 40% |  |
| COc1ccc(-c2ccc(C(F)(F)F)cc2Cl)cc1-c1c([O-])[n+](Cc2cnc(Cl)s2)c2c(C)cccn2c1=O [Compound 323] | ≤ 40% |  | ≥ 80% | ≤ 40% |  | ≥ 80% |
| Cc1cccn2c(=O)c(-c3cccc(-c4ccc(C#N)cc4)c3)c([O-])[n+](Cc3cnc(Cl)s3)c12 [Compound 325] | ≤ 40% |  | ≥ 80% | ≤ 40% |  |  |
| Cc1cccn2c(=O)c(-c3ccc(F)c(-c4cc(Cl)cc(C(F)(F)F)c4)c3)c([O-])[n+](Cc3cnc(Cl)s3)c12 [Compound 330] | ≤ 40% |  | ≥ 80% | ≤ 40% |  | ≥ 80% |
| COc1ccc(-c2c([O-])[n+](Cc3cnc(Cl)s3)c3c(C)cccn3c2=O)cc1-c1ccc(C(F)(F)F)cc1F [Compound 336] | ≤ 40% |  | ≥ 80% | ≤ 40% |  |  |
| Cc1cccn2c(=O)c(-c3cccc(-c4cc(F)cc(Br)c4)c3)c([O-])[n+](Cc3cnc(Cl)s3)c12 [Compound 337] | ≤ 40% |  | ≥ 80% | ≤ 40% |  |  |
| Cc1cccn2c(=O)c(-c3ccc(C#N)c(-c4ccc(C(F)(F)F)cc4Cl)c3)c([O-])[n+](Cc3cnc(Cl)s3)c12 [Compound 338] | ≤ 40% |  | ≥ 80% | ≤ 40% |  |  |
